Laboratory results: the supplement of paper PMC3334620
Over roughly 33,000 sequences, “E-score (-0.5 to 0.5)” has its median near -0.0034; the highest 2% begin near 0.25. This is one part of the list.

Target: T1, Yap3 (UniProt P38749)
T1 sequence: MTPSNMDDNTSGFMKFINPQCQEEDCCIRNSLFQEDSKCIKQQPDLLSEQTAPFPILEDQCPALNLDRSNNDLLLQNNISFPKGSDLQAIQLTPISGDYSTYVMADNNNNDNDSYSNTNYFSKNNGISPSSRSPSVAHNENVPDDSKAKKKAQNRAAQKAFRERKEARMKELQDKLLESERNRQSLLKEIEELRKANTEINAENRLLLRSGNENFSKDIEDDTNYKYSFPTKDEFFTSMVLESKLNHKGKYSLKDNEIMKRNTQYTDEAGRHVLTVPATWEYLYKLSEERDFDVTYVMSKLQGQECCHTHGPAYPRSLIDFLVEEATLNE
Experiment: PBM E-score (8-mer binding enrichment) (E-score (-0.5 to 0.5)); higher = stronger / more preferred TF binding
Settings: protein concentration: 100 nM; construct: GST-full length
Description: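 Universal 'all 10-mer' protein binding microarrays (Agilent AMADID 015681) probed with GST-tagged S. cerevisiae TFs (full-length or DBD) made by in vitro transcription/translation (PURExpress), about 100-200 nM. Bound TF was detected with fluorescent anti-GST. Each ungapped 8-mer (which stands for itself and its reverse complement) is scored by the PBM enrichment score (E-score), a modified Wilcoxon-Mann-Whitney statistic from -0.5 to +0.5, computed with the Universal PBM Analysis Suite. Scale: above 0.35 generally sequence-specific binding.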

Sequence	PBM E-score
ATTGCTGG	-0.0977
TATCCACA	0.142
CTATGGAC	0.0426
ACGTCTTG	-0.0559
AGTTTCCA	-0.0635
AACCCTGC	-0.128
ATGTGTCA	0.161
ACAATCCT	0.00872
CACATATG	-0.0126
CTGGCTAC	-0.089
CGGGCTGC	-0.254
GATTTATA	0.239
AATAATCC	0.109
ACCCGCCC	-0.0921
AACTCTGG	-0.0706
GTACCTAA	-0.0819
CGTAGCTA	-0.05
CATTCTAC	0.0585
CTTAGAAG	-0.0666
AACGACTT	-0.144
AGCGTATG	-0.0269
GACTCCTA	-0.0436
AGCATCGC	-0.22
AAACGTTG	-0.0223
CCCGGGTA	-0.103

Copied from the list.
Value of ACCCGCCC under PBM E-score: -0.0921
Value of CTTAGAAG under PBM E-score: -0.0666
Value of CCCGGGTA under PBM E-score: -0.103
Value of TATCCACA under PBM E-score: 0.142

Going on with the list.

Sequence	PBM E-score
CAGTCATG	-0.152
CAATACTA	0.0409
GTAGGCAA	0.00287
AGAGGCTA	-0.0845
AACATACA	0.128
CGGCTTAA	0.168
ACCGTGCG	-0.0516
GTTCCTCA	-0.18
AGCAATAG	-0.183
CCCCACAG	-0.21
GATCTACC	0.00102
ACGTCGTG	0.186
CACGGTAG	-0.0447
ACCACTTG	-0.141
CAAGGATA	0.00319
CGCACTAC	-0.00213
CCAGCTTC	-0.117
CCCCTACG	-0.322
CATTATGA	0.157
CACTAGTG	0.0852
CCCAAAAC	0.0651
AGCCCCTC	-0.159
GTCGTTAA	-0.0202
AGACGGGG	-0.124
GGCGAAGA	-0.231

Sequence	PBM E-score
TAATTATA	0.285
CTGAATAA	0.195
ACTATTGA	0.122
GAGTATGA	0.0893
AGTGGATA	0.0869
TCCGATAA	-0.0509
ATCGCTTA	0.0663
GACGGATA	0.134
AGCACATC	0.00998
AGATTCGG	0.149
CGGGGGAG	-0.331
TGCACTAA	0.208
AGAGGTAC	-0.248
TCTGCGCA	-0.0675
CTCATAAG	0.0483
ACCAGGAG	-0.207
ACAAGACC	-0.152
AAGTAGAA	0.0999
CTCGAAGC	-0.173
CGAAATAG	-0.116
ATATAGTA	0.264
GCCGCGAA	-0.114
CTAATAGA	0.0995
GGAACGAC	-0.133
GACGAAGC	-0.116

Nothing new here: an excerpt of the list.
Sequence	PBM E-score
CACATATG	-0.0126
CTGGCTAC	-0.089
CGGGCTGC	-0.254
GATTTATA	0.239

Further records follow.

Sequence	PBM E-score
CGTCCGAC	-0.155
CATCCCCC	-0.33
ACATGAGT	-0.0432
GATTTTAC	0.161
ACTTGAGC	-0.0924
GTCGTGGA	-0.0143
AATTCCTC	-0.0469
CCTATATC	0.0538
AATAGACT	0.143
ACTCTCCC	0.0233
ATCGGGGC	-0.236
ACCAAGGA	0.0109
CAGTACTA	0.0778
CCGTGTAC	0.124
ATAACCCC	-0.121
GATCTTGC	0.154
CGACCAGA	-0.0156
ATCAGTTG	0.132
CTTCCATC	-0.0889
GACATAGC	0.05
AAGCGCGA	0.0646
GAGCGATC	0.0216
TCGGCAAA	-0.0204
ATCGCACG	-0.113
AATATCCA	0.165

Sequence	PBM E-score
AGTATGAC	0.122
TCACCCCA	0.0771
AGGTTGGG	-0.103
AATCCACA	0.075
CCGTCAAC	-0.0784
CACCCCAG	-0.184
AAAATGTG	0.121
CCGTGATA	-0.0839
GCGATGAC	0.0826
GAGTGGAC	-0.0806
ATATAGAT	0.104
AACCCACG	-0.0739
GTCGTGTA	0.0599
CACTCTTC	-0.0158
ATCGGCAT	0.108
TAGCGTCA	-0.0474
CCGGCCGA	-0.214
CCATAGCC	-0.12
CAGCCCCG	-0.213
CGACAGCC	-0.0758
AAGACATC	-0.141
CACGCAGG	-0.0824
GTTAATGA	0.133
GGAAGATA	0.185
CGCACCTC	-0.186

Sequence	PBM E-score
AAGCTAGA	-0.00382
ATAGCTGA	-0.0565
GATTTCCA	0.0257
AAACCAGG	0.156
ACCCTCAC	-0.158
GTAGCAAA	0.185
CATGTTAC	0.149
CAGTTGCA	-0.13
GTAGCGAC	-0.112
GCATTGAA	0.0402
CGACATTA	0.203
GTAGCCTA	-0.236
CGTAAAAC	-0.0349
ACTCTGAC	-0.138
AGCCAGAC	-0.0513
AGGTAGTC	-0.0788
GGCCTAGA	-0.0411
ATGATTTC	0.24
ATCCTGGA	-0.0134
GGTCCATA	-0.143
CCCCCAGG	-0.397
GTGAAACA	0.113
GGGGGATA	-0.0397
AAATGTCC	-0.119
AAATTCCC	-0.164

Sequence	PBM E-score
AATGGCGT	0.015
GCGCTACA	0.0265
AAGTAAGA	0.11
AAGGCACG	-0.0196
CGTGTCCC	-0.106
GGCCAGGA	-0.0419
ACTCATCG	0.0599
GACAGGAC	-0.128
ACACCCAT	0.127
CATCTTTC	0.0657
AACTTACA	0.101
CATAAATG	-0.0565
GCTAACGA	0.104
CTTAGCGA	-0.0129
GCGTTGCC	-0.0698
AATGAGTC	0.0812
CAATGTCG	0.142
ACTTACAC	-0.0455
GACCATTA	0.0847
AGCGCCTG	-0.167
TACACAGA	-0.0403
CCTTACAC	0.0329
